Values quoted from earlier work as cited in patent publication US20240245743A1, “USE OF CINNAMOMUM ZEYLANICUM ESSENTIAL OIL (EO) AS HUMAN MELANOMA CELLS DEATH INDUCER AND AS POSSIBLE ADJUVANT IN PHARMACOLOGICAL THERAPIES” (CONSIGLIO NAZIONALE DELLE RICERCHE, priority 2021, published 2024).
At least one compound was matched to its structure with a doubt left.

System: melanoma
Details: phase III study; cited from earlier work

## CN(C)/N=N/c1[nH]cnc1C(N)=O [dacarbazine]
  ORR (objective response rate): 19%
  median PFS (progression free survival): 2.7 months
